# Laboratory results: PubChem BioAssay AID743454 (Peter MacCallum Cancer Centre, 2014)
# Purpose: 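Knock-downs lowering viability or raising caspase 3/7 activity in vorinostat-treated resistant cells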 (primary screen)
# System: human HCT116-VR colon cancer cells, selected for vorinostat resistance
# Knock-down reagent: siRNA pool against human genes, 40 nM siRNA pool
# Time to read-out: vorinostat for 24 h, read-out about 72 h after transfection
# Treatment: vorinostat at 2.5 µM final
# Measured: 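Cell viability by CellTiter-Fluor and caspase 3/7 activity by luminescence, each scaled to mock wells per plate, duplicates averaged, then robust z-scored over all plates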
# Scale: viability robust z-score: higher = more viable cells than screen typical; caspase robust z-score: higher = more caspase 3/7 activity than screen typical
# Active means: 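a knock-down is a hit when classed RV1 or RV2 for lowered viability, or CA1 or CA2 for caspase activation; those lethal without drug were dropped; hits were retested singly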
# The deposit covers about 18,000 reagents; this is a random part of them. Over the whole deposit, 450 (2.5%) are marked active. 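Single biological run; no consistent viability z cut-off exists, so the class columns, not z-scores, define the calls.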 A number with no mark means an inactive call. Reagent sequences are not shown.
The first 4 entries, ahead of the listing:
gene,viability hit class,caspase hit class,viability robust z-score,caspase robust z-score
KIF15,no change,no change,-0.48,0.72
GLYAT,no change,no change,0.78,0.14
EDN3,no change,no change,0.86,-0.8
CSPP1,no change,no change,0.63,-0.88

The listing, from the first entry:
gene,viability hit class,caspase hit class,viability robust z-score,caspase robust z-score
KIF15,no change,no change,-0.48,0.72
GLYAT,no change,no change,0.78,0.14
EDN3,no change,no change,0.86,-0.8
CSPP1,no change,no change,0.63,-0.88
RTL8A,no change,no change,-0.72,2.7
CPLX2,no change,no change,0.52,-1.08
KANK4,no change,no change,0.29,0.42
CDCA7L,no change,no change,0.47,-0.25
IL1A,no change,no change,0.62,1.12
PPP3R2,no change,no change,0.24,-0.74
HNRNPR,no change,no change,1.1,-0.08
DENND4C,no change,no change,-0.13,-0.95
SEMA3G,no change,no change,-0.13,1.22
SPIN2A,no change,no change,0.74,-1.28
TPPP2,no change,no change,0.62,-0.46
TAL1,no change,no change,-0.06,0.26
KIAA2012,no change,no change,-0.66,-1.15
ZFP14,no change,no change,-0.02,-0.97
ZMPSTE24,no change,no change,-0.29,0.02
ACSL4,no change,no change,1.34,-0.16
SMIM15,no change,no change,0.3,-0.63
PLEKHH2,no change,no change,-0.22,0.49
JPH3,no change,no change,1.67,-0.21
ADAMTS15,no change,no change,1.19,0.02
MYO9B,no change,no change,-0.22,-0.25
IRAK3,no change,no change,-0.92,1.98
TRPC5,no change,no change,-0.66,3.5
CCDC18,no change,no change,-0.84,-1.07
OR2A5,no change,no change,-0.19,-0.9
FUBP3,no change,no change,1.07,0.85
FXR2,no change,no change,-1.99,0.89
SLC12A7,no change,no change,-0.86,-0.52
ITGB4,no change,no change,-0.54,0.24
RIMS1,no change,no change,0.36,-0.6
COLCA1,no change,no change,0.38,2.51
SGO2,no change,no change,0.89,0.12
LRCH4,no change,no change,-0.09,-0.78
GLRA2,no change,no change,-0.72,4.72
KALRN,no change,no change,0.23,-0.25
CRTC2,no change,no change,-0.82,1.86
NPY,no change,no change,0.46,-0.24
GPA33,no change,no change,0.68,0.66
WNT9A,no change,no change,0.13,0.94
UPF1,no change,no change,-0.33,1.22
FEM1B,no change,no change,1.79,-0.04
OPN5,no change,no change,-1.31,-0.72
PLPPR2,no change,no change,-1.58,0.16
PLA2G4F,no change,no change,-0.03,2.22
CCDC77,no change,no change,-1.57,2.79
TAF11,no change,no change,0.29,0.57
C1orf53,no change,no change,-1.28,1.35
ZNF44,no change,no change,-1.1,0.13
HDAC6,no change,no change,-1.25,2.77
PPCS,no change,no change,1.37,-0.71
CCDC78,no change,no change,-1.06,4.62
PTP4A2,no change,no change,0.02,1.29
SCAMP5,no change,no change,0.12,0.55
